Data reported in paper doi:10.1101/791277.
No constants are given. Whether binding was seen depends on the method and setting. In cells and extracts the contact can be indirect. Some entries that bind do so weakly or less than the wild type. Sequences can lack the tags named with a protein.

Chains of the proteins cited; added tags and fusions are not shown. Lines headed by an entry give the natural chain unless they say otherwise; changes in a name come on top.
UniProt O08908, whole entry: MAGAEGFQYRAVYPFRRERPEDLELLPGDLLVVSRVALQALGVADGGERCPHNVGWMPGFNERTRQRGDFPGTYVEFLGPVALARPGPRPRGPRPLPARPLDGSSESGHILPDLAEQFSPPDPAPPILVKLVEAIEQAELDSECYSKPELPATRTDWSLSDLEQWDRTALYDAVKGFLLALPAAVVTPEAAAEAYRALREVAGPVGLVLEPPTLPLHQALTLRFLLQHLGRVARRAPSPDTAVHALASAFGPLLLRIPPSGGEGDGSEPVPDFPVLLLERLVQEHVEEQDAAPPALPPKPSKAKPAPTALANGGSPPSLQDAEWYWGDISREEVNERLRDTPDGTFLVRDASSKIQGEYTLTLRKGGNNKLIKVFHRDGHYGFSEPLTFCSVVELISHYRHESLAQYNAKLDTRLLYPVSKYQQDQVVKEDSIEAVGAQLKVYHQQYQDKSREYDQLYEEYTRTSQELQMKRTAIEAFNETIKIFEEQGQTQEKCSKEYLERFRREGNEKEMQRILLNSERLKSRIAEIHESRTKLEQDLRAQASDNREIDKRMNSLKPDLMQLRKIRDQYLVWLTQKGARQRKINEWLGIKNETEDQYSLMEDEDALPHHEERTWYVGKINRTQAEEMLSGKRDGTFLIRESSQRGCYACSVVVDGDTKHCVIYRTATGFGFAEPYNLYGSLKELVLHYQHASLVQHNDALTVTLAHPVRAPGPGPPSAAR
UniProt P27986, whole entry: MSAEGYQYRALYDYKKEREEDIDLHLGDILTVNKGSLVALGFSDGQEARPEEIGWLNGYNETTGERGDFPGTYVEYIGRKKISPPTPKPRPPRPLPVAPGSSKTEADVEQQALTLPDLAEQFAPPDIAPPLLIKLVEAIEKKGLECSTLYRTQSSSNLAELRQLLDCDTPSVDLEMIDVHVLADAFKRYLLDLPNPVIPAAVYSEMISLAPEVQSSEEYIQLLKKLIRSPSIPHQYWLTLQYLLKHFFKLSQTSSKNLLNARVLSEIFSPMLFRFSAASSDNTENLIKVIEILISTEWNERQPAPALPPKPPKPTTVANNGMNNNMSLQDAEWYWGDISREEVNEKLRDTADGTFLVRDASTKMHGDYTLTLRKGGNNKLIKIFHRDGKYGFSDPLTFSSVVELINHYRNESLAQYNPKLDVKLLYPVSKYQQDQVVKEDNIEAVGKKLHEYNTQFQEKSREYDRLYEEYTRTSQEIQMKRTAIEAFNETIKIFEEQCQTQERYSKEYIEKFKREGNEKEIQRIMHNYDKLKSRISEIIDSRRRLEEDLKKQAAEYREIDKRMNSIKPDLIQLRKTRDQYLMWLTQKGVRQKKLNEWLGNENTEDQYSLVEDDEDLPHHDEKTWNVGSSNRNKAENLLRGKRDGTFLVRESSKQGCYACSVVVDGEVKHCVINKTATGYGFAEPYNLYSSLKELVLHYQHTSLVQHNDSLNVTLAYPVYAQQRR

Experiments:
Test in all cases: co-IP
[1] = target: FLAG-p55γ (full-length human PI3-Kinase regulatory subunit p55γ) (human) (UniProt Q92569)
[2] = target: FLAG-p85β (full-length mouse PI3-Kinase regulatory subunit p85β) (mouse) (UniProt O08908)
[3] = target: FLAG-p85α (full-length human PI3-Kinase regulatory subunit p85α) (human) (UniProt P27986)

Measured: binding

B1: HA-dACK (kinase-dead ACK mutant, K158R) (protein, UniProt Q07912 1-1038)
chain: MQPEEGTGWLLELLSEVQLQQYFLRLRDDLNVTRLSHFEYVKNEDLEKIGMGRPGQRRLWEAVKRRKALCKRKSWMSKVFSGKRLEAEFPPHHSQSTFRKTSPAPGGPAGEGPLQSLTCLIGEKDLRLLEKLGDGSFGVVRRGEWDAPSGKTVSVAVRCLKPDVLSQPEAMDDFIREVNAMHSLDHRNLIRLYGVVLTPPMKMVTELAPLGSLLDRLRKHQGHFLLGTLSRYAVQVAEGMGYLESKRFIHRDLAARNLLLATRDLVKIGDFGLMRALPQNDDHYVMQEHRKVPFAWCAPESLKTRTFSHASDTWMFGVTLWEMFTYGQEPWIGLNGSQILHKIDKEGERLPRPEDCPQDIYNVMVQCWAHKPEDRPTFVALRDFLLEAQPTDMRALQDFEEPDKLHIQMNDVITVIEGRAENYWWRGQNTRTLCVGPFPRNVVTSVAGLSAQDISQPLQNSFIHTGHGDSDPRHCWGFPDRIDELYLGNPMDPPDLLSVELSTSRPPQHLGGVKKPTYDPVSEDQDPLSSDFKRLGLRKPGLPRGLWLAKPSARVPGTKASRGSGAEVTLIDFGEEPVVPALRPCAPSLAQLAMDACSLLDETPPQSPTRALPRPLHPTPVVDWDARPLPPPPAYDDVAQDEDDFEICSINSTLVGAGVPAGPSQGQTNYAFVPEQARPPPPLEDNLFLPPQGGGKPPSSAQTAEIFQALQQECMRQLQAPAGSPAPSPSPGGDDKPQVPPRVPIPPRPTRPHVQLSPAPPGEEETSQWPGPASPPRVPPREPLSPQGSRTPSPLVPPGSSPLPPRLSSSPGKTMPTTQSFASDPKYATPQVIQAPGPRAGPCILPIVRDGKKVSSTHYYLLPERPSYLERYQRFLREAQSPEEPTPLPVPLLLPPPSTPAPAAPTATVRPMPQAALDPKANFSTNNSNPGARPPPPRATARLPQRGCPGDGPEAGRPADKIQMAMVHGVTTEECQAALQCHGWSVQRAAQYLKVEQLFGLGLRPRGECHKVLEMFDWNLEQAGCHLLGSWGPAHHKR
binds: all assays above
